The target in experiment [1] is T1, Drosophila Tribbles activation loop mutant Trbl^SLE/G, yeast two-hybrid bait (Drosophila) (UniProt Q9V3Z1).
T1 sequence: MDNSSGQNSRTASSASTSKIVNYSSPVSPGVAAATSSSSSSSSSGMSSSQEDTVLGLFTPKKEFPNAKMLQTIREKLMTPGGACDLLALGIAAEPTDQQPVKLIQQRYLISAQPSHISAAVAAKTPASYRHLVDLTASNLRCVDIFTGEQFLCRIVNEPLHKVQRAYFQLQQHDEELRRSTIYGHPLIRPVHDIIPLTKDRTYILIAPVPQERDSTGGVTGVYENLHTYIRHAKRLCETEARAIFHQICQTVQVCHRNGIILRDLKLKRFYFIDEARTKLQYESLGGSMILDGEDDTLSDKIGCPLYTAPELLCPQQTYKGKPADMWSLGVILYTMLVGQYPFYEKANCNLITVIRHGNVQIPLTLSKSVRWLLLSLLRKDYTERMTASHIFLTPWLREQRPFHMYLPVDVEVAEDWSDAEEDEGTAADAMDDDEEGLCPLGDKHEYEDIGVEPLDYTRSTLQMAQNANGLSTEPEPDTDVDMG
Nature of the experiment: two-hybrid; yeast two-hybrid assay shown in Fig. S9; orientation and conditions not given.

Amino acid sequences for entries named in this document (tags omitted).
UniProt Q02637: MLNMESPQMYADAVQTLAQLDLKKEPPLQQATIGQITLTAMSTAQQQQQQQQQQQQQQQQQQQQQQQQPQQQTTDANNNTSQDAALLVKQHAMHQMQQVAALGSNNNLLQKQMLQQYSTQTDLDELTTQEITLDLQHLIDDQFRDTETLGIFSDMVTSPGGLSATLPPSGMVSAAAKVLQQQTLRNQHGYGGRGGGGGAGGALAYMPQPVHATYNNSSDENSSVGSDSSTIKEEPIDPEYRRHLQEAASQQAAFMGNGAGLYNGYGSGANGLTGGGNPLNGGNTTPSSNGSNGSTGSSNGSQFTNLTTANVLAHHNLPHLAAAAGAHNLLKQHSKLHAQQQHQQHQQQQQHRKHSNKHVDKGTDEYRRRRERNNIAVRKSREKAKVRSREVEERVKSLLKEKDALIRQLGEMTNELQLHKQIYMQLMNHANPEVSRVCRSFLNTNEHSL

Experiment [2] has as its target Drosophila Tribbles (Trbl), wild type, yeast two-hybrid fusion (Drosophila) (UniProt Q9V3Z1). Nature of the experiment: two-hybrid; MaV203 yeast; bait in pDEST32, prey in pDEST22; colony growth of co-transformants on media with increasing concentrations of 3-AT (His3 reporter).

Where a chain is given by its changes, count along the chain named. These are yes or no findings as the source states them, for the method shown. Some results given as binding are weak or reduced against the parent protein; the word gives no strength. For some assays here: Sequences can lack the tags named with a protein.

As for “Slbo (C/EBP transcription factor encoded by slow border cells), yeast two-hybrid fusion (from UniProt Q02637 1-449)”, the binding entry in experiment [1] was “binds”.

B1: Drosophila Tribbles (Trbl), wild type, yeast two-hybrid fusion (natural protein, UniProt Q9V3Z1 1-484, looked up)
chain: T1 sequence with G286E
notes: Tribbles (Trbl), Drosophila pseudokinase; WT Trbl ORF; One molecule for both two-hybrid copies: each copy carries only one of the two tags; also called WT Trbl; pDEST32-Trbl; source: yeast two-hybrid fusion (MaV203 yeast)
With B1, in experiment [2], the binding result is “binds”.

For the origin of these results see publication PMC12070071, “The Drosophila pseudokinase Tribbles translocates to the fat body membrane in response to fasting to modulate insulin sensitivity” (Development (Cambridge, England), 2025).
